Taken from: PubChem BioAssay AID1259308 (NCATS, 2017)

Test: 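Knock-downs that increase output of a recombinant reporter protein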 (primary screen)
System: human HEK293 embryonic kidney cells stably expressing firefly luciferase (HEK-CMV-Luc2-Hygro)
Reagent: single siRNA against human genes, 0.8 pmol siRNA per well
Timing: 72 h
Detection: 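Luciferase light (ONE-Glo) measured on one replicate plate set and viability (CellTiter-Glo) on the other, scaled to a negative control siRNA, with robust z-scores and luciferase per cell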
Reading the numbers: total luciferase, z-score and total luciferase, % of control: higher = more reporter protein produced; luciferase per cell, z-score: higher = more reporter output per viable cell
Hit rule: 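Active when the median/MAD z-score for overall luciferase is greater than 3; a gene was taken forward for validation with new siRNAs if at least two of its three siRNAs passed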
Meaning of the calls: active = raised luciferase; inactive = no rise
This is one part, drawn at random, of about 59,000 reagents. About 1,510 of all reagents (2.6%) count as active. 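Calls use total luciferase alone and ignore viability, so some active siRNAs may act by altering cell number.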 Reagents against one gene are numbered here. Further read-outs or replicates are left out here.

| target | reagent no. | total luciferase, z-score | total luciferase, % of control | luciferase per cell, z-score | call |
| --- | --- | --- | --- | --- | --- |
| CMC1 | 1 | -0.465 | 72.6 | -0.551 | inactive |
| CMC1 | 2 | 1.14 | 105 | 0.446 | inactive |
| CMC1 | 3 | 0.734 | 96.5 | 0.196 | inactive |
| C8orf58 | 1 | -0.0198 | 81.5 | 0.853 | inactive |
| C8orf58 | 2 | -0.122 | 79.5 | -0.102 | inactive |
| C8orf58 | 3 | 0.16 | 85.1 | 0.158 | inactive |
| GDF10 | 1 | 1.24 | 107 | 1.73 | inactive |
| GDF10 | 2 | -0.375 | 74.4 | 0.00523 | inactive |
| GDF10 | 3 | -1.59 | 50.3 | -1.58 | inactive |
| POTED | 1 | -0.768 | 66.6 | -0.852 | inactive |
| POTED | 2 | -0.854 | 64.9 | -1.29 | inactive |
| POTED | 3 | -1.76 | 46.8 | -0.846 | inactive |
| GCNT2P1 | 1 | -0.658 | 68.8 | -0.593 | inactive |
| GCNT2P1 | 2 | -1.57 | 50.6 | -0.743 | inactive |
| GCNT2P1 | 3 | 0.607 | 94 | 1.21 | inactive |
| HAPLN2 | 1 | -0.544 | 71.1 | -1.05 | inactive |
| HAPLN2 | 2 | -0.00276 | 81.8 | 0.126 | inactive |
| HAPLN2 | 3 | -0.076 | 80.4 | -0.427 | inactive |
| TAPT1 | 1 | 0.615 | 94.1 | 0.884 | inactive |
| TAPT1 | 2 | -0.0879 | 80.1 | -0.68 | inactive |
| TAPT1 | 3 | -0.4 | 73.9 | -0.126 | inactive |
| JPT2 | 1 | -0.338 | 75.2 | 0.025 | inactive |
| JPT2 | 2 | -0.428 | 73.4 | -0.686 | inactive |
| JPT2 | 3 | -0.322 | 75.5 | 0.209 | inactive |
| ALOX12 | 1 | 0.359 | 89 | -0.287 | inactive |
| ALOX12 | 2 | 2.78 | 137 | 2.57 | inactive |
| ALOX12 | 3 | -0.0268 | 81.4 | 0.226 | inactive |
| COX18 | 1 | -1.18 | 58.4 | 0.615 | inactive |
| COX18 | 2 | -0.327 | 75.4 | -0.67 | inactive |
| COX18 | 3 | -0.678 | 68.4 | -0.301 | inactive |
| PRMT5 | 1 | -0.324 | 75.4 | 0.922 | inactive |
| PRMT5 | 2 | 1.25 | 107 | 0.597 | inactive |
| PRMT5 | 3 | 0.789 | 97.6 | 0.844 | inactive |
| MAT1A | 1 | 0.185 | 85.6 | -0.212 | inactive |
| MAT1A | 2 | 0.536 | 92.6 | 0.742 | inactive |
| MAT1A | 3 | 1.98 | 121 | 1.4 | inactive |
| HAT1 | 1 | -0.971 | 62.6 | -1.35 | inactive |
| HAT1 | 2 | -0.334 | 75.2 | -0.00742 | inactive |
| HAT1 | 3 | -0.512 | 71.7 | -0.75 | inactive |
| TMEM163 | 1 | -0.353 | 74.9 | -0.721 | inactive |
| TMEM163 | 2 | 0.247 | 86.8 | 0.0807 | inactive |
| TMEM163 | 3 | 1.07 | 103 | 1.46 | inactive |
| OR4K5 | 1 | 0.291 | 87.7 | 1.44 | inactive |
| OR4K5 | 2 | -0.453 | 72.9 | -0.644 | inactive |
| OR4K5 | 3 | 1.79 | 118 | 0.861 | inactive |
| GTF2A2 | 1 | 2.13 | 124 | 1.87 | inactive |
| GTF2A2 | 2 | 1.43 | 110 | 1.69 | inactive |
| GTF2A2 | 3 | 3.1 | 144 | 2.07 | active |
| LCE2B | 1 | -1.66 | 48.8 | -2.36 | inactive |
| LCE2B | 2 | 1.12 | 104 | 0.914 | inactive |
| LCE2B | 3 | -0.153 | 78.8 | -0.35 | inactive |
| MEMO1 | 1 | -0.154 | 78.8 | -0.85 | inactive |
| MEMO1 | 2 | -0.296 | 76 | -0.846 | inactive |
| MEMO1 | 3 | 0.0293 | 82.5 | 0.503 | inactive |
| DAPL1 | 1 | 0.996 | 102 | 0.298 | inactive |
| DAPL1 | 2 | 0.17 | 85.3 | 0.752 | inactive |
| DAPL1 | 3 | 3.58 | 153 | 3.21 | active |
